Experimental data: the supplement of paper PMC10849652
This is one part of the list.

Amino acid sequences for entries named in this document (tags omitted). A change or cut given only in a name is not applied to a line headed by its entry.
UniProt Q8NA75: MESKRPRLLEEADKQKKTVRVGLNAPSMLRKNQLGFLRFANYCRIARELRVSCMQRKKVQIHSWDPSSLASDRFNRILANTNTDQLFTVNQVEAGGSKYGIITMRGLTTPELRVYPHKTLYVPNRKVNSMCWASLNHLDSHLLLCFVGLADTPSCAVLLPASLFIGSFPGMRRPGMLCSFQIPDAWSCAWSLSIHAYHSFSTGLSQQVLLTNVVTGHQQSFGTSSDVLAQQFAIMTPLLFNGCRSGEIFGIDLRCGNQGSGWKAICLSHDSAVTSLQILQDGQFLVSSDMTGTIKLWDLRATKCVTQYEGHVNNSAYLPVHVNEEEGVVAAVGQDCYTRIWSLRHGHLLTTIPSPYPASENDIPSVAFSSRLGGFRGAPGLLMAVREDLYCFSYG
UniProt Q9P013: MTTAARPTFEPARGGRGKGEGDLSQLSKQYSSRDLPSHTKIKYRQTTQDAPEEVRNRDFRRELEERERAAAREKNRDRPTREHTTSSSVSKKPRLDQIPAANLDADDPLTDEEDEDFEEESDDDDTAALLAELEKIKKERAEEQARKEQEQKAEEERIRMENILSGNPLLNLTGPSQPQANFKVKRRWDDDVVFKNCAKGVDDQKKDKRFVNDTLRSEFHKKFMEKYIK
UniProt Q13617, whole entry, looked up: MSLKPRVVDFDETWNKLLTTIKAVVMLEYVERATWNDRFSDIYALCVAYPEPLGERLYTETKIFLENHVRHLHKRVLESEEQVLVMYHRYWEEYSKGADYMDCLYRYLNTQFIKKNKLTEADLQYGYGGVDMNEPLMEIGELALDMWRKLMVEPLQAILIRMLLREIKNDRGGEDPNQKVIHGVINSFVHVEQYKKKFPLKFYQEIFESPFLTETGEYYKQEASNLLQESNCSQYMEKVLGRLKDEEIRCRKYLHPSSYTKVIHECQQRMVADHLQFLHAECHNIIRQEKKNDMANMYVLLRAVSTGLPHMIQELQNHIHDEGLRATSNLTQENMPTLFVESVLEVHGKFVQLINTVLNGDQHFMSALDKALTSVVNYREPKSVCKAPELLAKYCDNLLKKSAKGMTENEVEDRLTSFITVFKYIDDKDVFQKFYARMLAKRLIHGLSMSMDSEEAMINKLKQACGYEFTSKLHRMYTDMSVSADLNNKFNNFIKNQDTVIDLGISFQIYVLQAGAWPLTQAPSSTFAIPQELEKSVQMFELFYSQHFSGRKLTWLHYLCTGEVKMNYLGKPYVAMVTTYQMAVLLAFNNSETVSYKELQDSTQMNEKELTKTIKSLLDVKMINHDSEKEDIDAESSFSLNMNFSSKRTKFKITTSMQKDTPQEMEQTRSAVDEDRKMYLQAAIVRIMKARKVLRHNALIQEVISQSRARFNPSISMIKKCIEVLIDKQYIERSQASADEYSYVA
UniProt P00387: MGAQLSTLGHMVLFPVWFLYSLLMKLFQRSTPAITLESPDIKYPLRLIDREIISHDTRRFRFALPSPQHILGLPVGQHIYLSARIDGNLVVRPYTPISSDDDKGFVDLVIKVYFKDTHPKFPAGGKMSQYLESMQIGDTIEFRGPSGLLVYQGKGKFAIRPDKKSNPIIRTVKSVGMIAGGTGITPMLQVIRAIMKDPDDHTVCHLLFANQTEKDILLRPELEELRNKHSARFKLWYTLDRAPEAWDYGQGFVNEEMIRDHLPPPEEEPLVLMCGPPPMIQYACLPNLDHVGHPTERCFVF
UniProt Q69YN2: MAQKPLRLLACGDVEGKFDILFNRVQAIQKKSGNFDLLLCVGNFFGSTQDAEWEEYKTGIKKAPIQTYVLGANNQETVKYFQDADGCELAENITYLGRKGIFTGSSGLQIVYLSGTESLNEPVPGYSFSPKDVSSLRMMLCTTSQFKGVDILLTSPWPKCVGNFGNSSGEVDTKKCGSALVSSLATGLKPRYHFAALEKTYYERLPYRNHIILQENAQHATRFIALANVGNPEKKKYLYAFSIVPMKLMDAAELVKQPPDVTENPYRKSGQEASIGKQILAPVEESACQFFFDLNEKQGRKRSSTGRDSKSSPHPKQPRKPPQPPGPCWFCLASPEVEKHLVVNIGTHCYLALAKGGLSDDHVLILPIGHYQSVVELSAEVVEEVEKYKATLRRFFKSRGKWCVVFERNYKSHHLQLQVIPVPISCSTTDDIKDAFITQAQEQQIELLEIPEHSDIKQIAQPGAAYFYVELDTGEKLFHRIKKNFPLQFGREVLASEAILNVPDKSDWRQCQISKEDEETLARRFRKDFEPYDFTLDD
UniProt P32929, whole entry, looked up: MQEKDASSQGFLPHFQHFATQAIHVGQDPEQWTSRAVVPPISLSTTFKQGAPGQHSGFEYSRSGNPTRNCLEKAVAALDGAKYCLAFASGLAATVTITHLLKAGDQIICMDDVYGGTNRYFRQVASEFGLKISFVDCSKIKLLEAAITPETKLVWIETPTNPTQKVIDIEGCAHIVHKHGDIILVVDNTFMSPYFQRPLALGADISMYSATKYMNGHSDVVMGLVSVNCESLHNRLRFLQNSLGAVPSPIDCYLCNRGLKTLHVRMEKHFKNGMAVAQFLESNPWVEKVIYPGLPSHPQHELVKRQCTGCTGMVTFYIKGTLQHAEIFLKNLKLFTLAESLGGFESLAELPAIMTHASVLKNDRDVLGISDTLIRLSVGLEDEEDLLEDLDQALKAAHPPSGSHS
UniProt P14868: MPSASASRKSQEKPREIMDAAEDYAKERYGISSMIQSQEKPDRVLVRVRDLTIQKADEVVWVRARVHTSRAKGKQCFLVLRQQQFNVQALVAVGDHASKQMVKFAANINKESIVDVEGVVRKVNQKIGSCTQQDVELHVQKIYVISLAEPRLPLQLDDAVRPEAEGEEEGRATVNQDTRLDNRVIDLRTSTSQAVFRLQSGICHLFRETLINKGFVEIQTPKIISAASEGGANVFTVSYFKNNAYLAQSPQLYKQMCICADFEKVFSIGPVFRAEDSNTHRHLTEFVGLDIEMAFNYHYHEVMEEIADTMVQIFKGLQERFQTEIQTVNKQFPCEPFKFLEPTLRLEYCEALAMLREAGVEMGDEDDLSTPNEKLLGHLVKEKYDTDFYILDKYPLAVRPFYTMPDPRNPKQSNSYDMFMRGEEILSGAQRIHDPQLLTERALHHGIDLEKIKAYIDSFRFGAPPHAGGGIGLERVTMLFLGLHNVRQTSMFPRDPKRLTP
UniProt P26232: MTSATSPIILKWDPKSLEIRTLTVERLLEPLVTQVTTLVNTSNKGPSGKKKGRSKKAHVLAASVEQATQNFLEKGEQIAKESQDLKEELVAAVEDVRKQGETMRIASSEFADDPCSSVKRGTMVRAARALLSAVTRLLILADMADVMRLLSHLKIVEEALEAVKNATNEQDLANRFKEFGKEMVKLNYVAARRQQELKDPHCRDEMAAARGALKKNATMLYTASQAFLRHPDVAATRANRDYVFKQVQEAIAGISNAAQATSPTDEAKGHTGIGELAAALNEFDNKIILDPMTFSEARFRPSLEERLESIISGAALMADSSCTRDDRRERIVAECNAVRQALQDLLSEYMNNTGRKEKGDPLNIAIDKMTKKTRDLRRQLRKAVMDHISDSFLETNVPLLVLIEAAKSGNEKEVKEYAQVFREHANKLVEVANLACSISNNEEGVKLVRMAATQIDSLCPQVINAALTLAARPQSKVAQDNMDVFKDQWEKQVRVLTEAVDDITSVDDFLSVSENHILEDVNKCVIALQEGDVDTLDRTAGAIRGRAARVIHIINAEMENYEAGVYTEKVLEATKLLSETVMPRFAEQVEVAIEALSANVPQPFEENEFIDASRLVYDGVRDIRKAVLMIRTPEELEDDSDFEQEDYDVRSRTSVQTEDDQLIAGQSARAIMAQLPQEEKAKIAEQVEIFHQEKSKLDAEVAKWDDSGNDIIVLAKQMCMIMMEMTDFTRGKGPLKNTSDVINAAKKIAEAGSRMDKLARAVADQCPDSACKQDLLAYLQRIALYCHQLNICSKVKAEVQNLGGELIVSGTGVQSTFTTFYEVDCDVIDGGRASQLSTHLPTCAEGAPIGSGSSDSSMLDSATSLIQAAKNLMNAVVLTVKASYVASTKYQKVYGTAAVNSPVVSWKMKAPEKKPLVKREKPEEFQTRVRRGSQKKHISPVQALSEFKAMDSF
UniProt P27707: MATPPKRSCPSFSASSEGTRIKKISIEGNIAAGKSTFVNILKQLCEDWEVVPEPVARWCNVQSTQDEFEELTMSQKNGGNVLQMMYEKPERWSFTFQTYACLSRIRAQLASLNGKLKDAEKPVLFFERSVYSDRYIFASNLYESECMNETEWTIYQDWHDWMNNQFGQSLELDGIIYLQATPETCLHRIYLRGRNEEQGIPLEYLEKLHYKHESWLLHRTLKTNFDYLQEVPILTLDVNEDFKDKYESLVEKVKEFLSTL
UniProt Q9Y4B6: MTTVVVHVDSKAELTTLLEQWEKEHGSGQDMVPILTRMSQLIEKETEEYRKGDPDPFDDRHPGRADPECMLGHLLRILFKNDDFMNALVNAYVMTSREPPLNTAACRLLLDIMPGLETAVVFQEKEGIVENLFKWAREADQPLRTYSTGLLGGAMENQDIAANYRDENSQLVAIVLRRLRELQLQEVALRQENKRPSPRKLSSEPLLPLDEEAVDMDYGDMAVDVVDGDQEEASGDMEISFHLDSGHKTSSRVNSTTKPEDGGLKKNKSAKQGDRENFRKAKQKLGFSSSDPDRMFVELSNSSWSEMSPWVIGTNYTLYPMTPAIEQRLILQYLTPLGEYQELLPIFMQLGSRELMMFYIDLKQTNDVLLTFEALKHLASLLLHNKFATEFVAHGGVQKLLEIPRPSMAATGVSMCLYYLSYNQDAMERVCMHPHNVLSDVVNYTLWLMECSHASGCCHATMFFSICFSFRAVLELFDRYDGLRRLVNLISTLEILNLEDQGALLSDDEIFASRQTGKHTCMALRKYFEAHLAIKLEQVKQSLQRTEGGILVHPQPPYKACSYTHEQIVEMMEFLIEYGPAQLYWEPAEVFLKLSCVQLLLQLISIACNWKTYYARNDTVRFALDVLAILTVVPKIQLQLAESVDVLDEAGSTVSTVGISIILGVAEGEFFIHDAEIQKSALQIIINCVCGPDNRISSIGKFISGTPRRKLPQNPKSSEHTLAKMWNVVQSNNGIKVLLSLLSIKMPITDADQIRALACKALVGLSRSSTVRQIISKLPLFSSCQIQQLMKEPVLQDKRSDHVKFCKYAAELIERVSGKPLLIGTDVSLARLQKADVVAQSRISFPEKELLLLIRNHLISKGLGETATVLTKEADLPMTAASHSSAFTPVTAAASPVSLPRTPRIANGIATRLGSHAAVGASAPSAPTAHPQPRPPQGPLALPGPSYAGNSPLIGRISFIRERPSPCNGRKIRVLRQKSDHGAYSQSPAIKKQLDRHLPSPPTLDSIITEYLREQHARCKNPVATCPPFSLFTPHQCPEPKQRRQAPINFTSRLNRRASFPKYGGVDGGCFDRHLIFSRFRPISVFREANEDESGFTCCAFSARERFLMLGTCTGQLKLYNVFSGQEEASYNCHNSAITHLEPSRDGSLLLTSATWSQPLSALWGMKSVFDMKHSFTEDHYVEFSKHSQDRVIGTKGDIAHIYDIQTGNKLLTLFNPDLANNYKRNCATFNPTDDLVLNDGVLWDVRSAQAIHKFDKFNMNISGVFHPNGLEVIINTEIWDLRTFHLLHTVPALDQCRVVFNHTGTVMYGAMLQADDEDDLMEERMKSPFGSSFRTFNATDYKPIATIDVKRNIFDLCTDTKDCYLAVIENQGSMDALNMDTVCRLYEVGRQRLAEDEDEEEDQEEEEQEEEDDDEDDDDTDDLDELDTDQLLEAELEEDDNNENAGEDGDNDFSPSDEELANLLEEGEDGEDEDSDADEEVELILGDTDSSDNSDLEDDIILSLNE
UniProt P51397: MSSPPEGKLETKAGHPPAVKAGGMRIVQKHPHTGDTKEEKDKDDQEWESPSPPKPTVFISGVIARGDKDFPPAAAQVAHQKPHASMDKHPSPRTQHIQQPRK
UniProt Q05048: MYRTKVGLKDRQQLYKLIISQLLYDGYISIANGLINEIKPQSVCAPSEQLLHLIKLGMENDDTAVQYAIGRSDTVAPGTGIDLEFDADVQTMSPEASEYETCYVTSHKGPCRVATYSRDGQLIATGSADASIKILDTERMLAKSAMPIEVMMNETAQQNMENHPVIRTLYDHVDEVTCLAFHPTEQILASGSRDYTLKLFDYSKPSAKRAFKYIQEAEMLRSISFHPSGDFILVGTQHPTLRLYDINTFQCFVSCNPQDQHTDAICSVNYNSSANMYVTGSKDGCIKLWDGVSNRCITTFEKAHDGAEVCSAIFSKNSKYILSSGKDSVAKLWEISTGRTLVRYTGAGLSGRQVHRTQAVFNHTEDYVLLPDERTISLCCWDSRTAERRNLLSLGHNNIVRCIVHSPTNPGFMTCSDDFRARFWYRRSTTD

Tests used:
Experiment in all cases: log2 fold change, soluble protein after heating vs DMSO (PISA); higher = thermal stabilisation; K562 cells, 10 uM, 30 min; active = over 0.2 and 3.5 SD of the protein, either way, in both replicates (recomputed)
saracatinib = compound: CN1CCN(CCOc2cc(OC3CCOCC3)c3c(Nc4c(Cl)ccc5c4OCO5)ncnc3c2)CC1 [saracatinib]
Method in brief: (§1)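 K562 cells at 2×10^6 cells/mL were treated for 30 min with 10 μM compound, and aliquots were heated for 3 min over 48°C-58°C before pooling. Extraction used PBS with 0.5% NP-40 at 4°C, and soluble protein was the supernatant after 21,000xg for 90 min, measured by TMTpro 16plex LC-MS/MS with channel sums equalised. Thermal stability values, relative to control samples and from duplicates, are log2 fold changes.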

sotrastaurin = compound: CN1CCN(c2nc(C3=C(c4c[nH]c5ccccc45)C(=O)NC3=O)c3ccccc3n2)CC1 [sotrastaurin]
Method in brief: as §1

alvocidib = compound: CN1CC[C@H](c2c(O)cc(O)c3c(=O)cc(-c4ccccc4Cl)oc23)[C@H](O)C1 [alvocidib]
Method in brief: as §1

Tubastatin A = compound: CN1CCc2c(c3ccccc3n2Cc2ccc(C(=O)NO)cc2)C1 [Tubastatin A]
Method in brief: as §1

[1] = compound: CNC(=O)C1=CC=CC=C1NC2=NC(=NC=C2Cl)NC3=C(C=C(C=C3)N4CCOCC4)OC
Method in brief: as §1

defactinib = compound: CNC(=O)c1ccc(Nc2ncc(C(F)(F)F)c(NCc3nccnc3N(C)S(C)(=O)=O)n2)cc1 [defactinib]
Method in brief: as §1

rucaparib = compound: CNCc1ccc(-c2[nH]c3cc(F)cc4c3c2CCNC4=O)cc1 [rucaparib]
Method in brief: as §1

[2] = compound: CNc1nc(-c2ccc3c(N)n[nH]c3c2)cc(N2C[C@@H](C(=O)NC3CCCCC3)CC[C@H]2C)n1
Method in brief: as §1

encorafenib = compound: COC(=O)N[C@@H](C)CNc1nccc(-c2cn(C(C)C)nc2-c2cc(Cl)cc(NS(C)(=O)=O)c2F)n1 [encorafenib]
Method in brief: as §1

[3] = compound: COC(=O)[C@H](CCSC)NC(=O)C1=C(C=C(C=C1)NC[C@H](CS)N)C2=CC=CC=C2
Method in brief: as §1

[4] = compound: COC1=CC=C(C=C1)CN2C=CC3=C2C=C(C=C3)C(=O)NO
Method in brief: as §1

filanesib = compound: CON(C)C(=O)N1N=C(c2cc(F)ccc2F)S[C@@]1(CCCN)c1ccccc1 [filanesib]
Method in brief: as §1

zotarolimus = compound: CO[C@H]1C[C@@H]2CC[C@@H](C)[C@@](O)(O2)C(=O)C(=O)N2CCCC[C@H]2C(=O)O[C@H]([C@H](C)C[C@@H]2CC[C@H](n3cnnn3)[C@H](OC)C2)CC(=O)[C@H](C)/C=C(\C)[C@@H](O)[C@@H](OC)C(=O)[C@H](C)C[C@H](C)/C=C/C=C/C=C/1C [zotarolimus]
Method in brief: as §1

idasanutlin = compound: COc1cc(C(=O)O)ccc1NC(=O)[C@@H]1N[C@@H](CC(C)(C)C)[C@](C#N)(c2ccc(Cl)cc2F)[C@H]1c1cccc(Cl)c1F [idasanutlin]
Method in brief: as §1

alisertib = compound: COc1cc(Nc2ncc3c(n2)-c2ccc(Cl)cc2C(c2c(F)cccc2OC)=NC3)ccc1C(=O)O [alisertib]
Method in brief: as §1

[5] = compound: COc1cc2nc(-c3cc(F)ccc3O)nc(N[C@@H]3CNC[C@H]3C(C)(C)O)c2cc1OC
Method in brief: as §1

gefitinib = compound: COc1cc2ncnc(Nc3ccc(F)c(Cl)c3)c2cc1OCCCN1CCOCC1 [gefitinib]
Method in brief: as §1

[6] = compound: COc1cccc2cc(-c3nc([C@H]4CC[C@H](C(=O)O)CC4)n4ncnc(N)c34)[nH]c12
Method in brief: as §1

lapatinib = compound: CS(=O)(=O)CCNCc1ccc(-c2ccc3ncnc(Nc4ccc(OCc5cccc(F)c5)c(Cl)c4)c3c2)o1 [lapatinib]
Method in brief: as §1

pictilisib = compound: CS(=O)(=O)N1CCN(Cc2cc3nc(-c4cccc5[nH]ncc45)nc(N4CCOCC4)c3s2)CC1 [pictilisib]
Method in brief: as §1

Measured: log2 fold change

DCAF4L2 (UniProt Q8NA75)
inactive: saracatinib -0.003 | sotrastaurin -0.016 | alvocidib -0.055 | Tubastatin A 0.076 | [1] 0.016 | defactinib 0.033 | rucaparib -0.012 | [2] 0.056 | encorafenib 0.057 | [3] 0.019 | [4] -0.055 | filanesib 0.042 | zotarolimus -0.001 | idasanutlin -0.028 | alisertib -0.057 | [5] 0.092 | gefitinib 0.101 | [6] 0.054 | lapatinib 0.026 | pictilisib -0.01

CWC15 (UniProt Q9P013)
inactive: saracatinib 0.043 | sotrastaurin 0.094 | alvocidib 0.151 | Tubastatin A -0.044 | [1] -0.053 | defactinib 0.043 | rucaparib 0.001 | [2] -0.077 | encorafenib -0.092 | [3] 0.06 | [4] -0.009 | filanesib 0.029 | zotarolimus -0.075 | idasanutlin -0.02 | alisertib -0.068 | [5] 0.065 | gefitinib -0.01 | [6] 0.065 | lapatinib -0.072 | pictilisib -0.021

CUL2 isoform 2 (UniProt Q13617)
inactive: saracatinib -0.016 | sotrastaurin -0.009 | alvocidib -0.097 | Tubastatin A -0.009 | [1] -0.008 | defactinib -0.019 | rucaparib -0.011 | [2] -0.022 | encorafenib 0 | [3] -0.01 | [4] 0.087 | filanesib -0.091 | zotarolimus 0.032 | idasanutlin -0.085 | alisertib -0.02 | [5] 0.032 | gefitinib 0.01 | [6] 0.036 | lapatinib -0.008 | pictilisib 0.016

CTBP1 (UniProt Q13363)
inactive: saracatinib 0.02 | sotrastaurin 0.032 | alvocidib 0.031 | Tubastatin A 0.013 | [1] -0.03 | defactinib -0.021 | rucaparib -0.056 | [2] 0.029 | encorafenib 0.012 | [3] 0.034 | [4] -0.013 | filanesib -0.046 | zotarolimus -0.005 | idasanutlin -0.037 | alisertib -0.087 | [5] 0.041 | gefitinib 0.015 | [6] 0.06 | lapatinib -0.011 | pictilisib 0.069

CYB5R3 isoform 3 (UniProt P00387)
inactive: saracatinib 0.005 | sotrastaurin 0.052 | alvocidib -0.004 | Tubastatin A -0.011 | [1] 0.122 | defactinib 0.015 | rucaparib -0.037 | [2] -0.015 | encorafenib -0.026 | [3] 0.028 | [4] -0.037 | filanesib -0.032 | zotarolimus -0.036 | idasanutlin -0.058 | alisertib -0.021 | [5] 0.042 | gefitinib 0.011 | [6] 0.05 | lapatinib -0.048 | pictilisib 0.04

CWF19L1 (UniProt Q69YN2)
inactive: saracatinib 0.033 | sotrastaurin -0.01 | alvocidib 0.103 | Tubastatin A -0.033 | [1] 0.051 | defactinib -0.004 | rucaparib 0.005 | [2] 0.007 | encorafenib 0.022 | [3] -0.003 | [4] -0.031 | filanesib 0.114 | zotarolimus 0.017 | idasanutlin -0.044 | alisertib -0.077 | [5] 0.054 | gefitinib -0.001 | [6] -0.042 | lapatinib -0.005 | pictilisib -0.026

Reprinted from the results shown (2 entries):
CUL2 isoform 2 (UniProt Q13617)
inactive: saracatinib -0.016 | sotrastaurin -0.009 | alvocidib -0.097 | Tubastatin A -0.009 | [1] -0.008 | defactinib -0.019 | rucaparib -0.011 | [2] -0.022 | encorafenib 0 | [3] -0.01 | [4] 0.087 | filanesib -0.091 | zotarolimus 0.032 | idasanutlin -0.085 | alisertib -0.02 | [5] 0.032 | gefitinib 0.01 | [6] 0.036 | lapatinib -0.008 | pictilisib 0.016

CTBP1 (UniProt Q13363)
inactive: saracatinib 0.02 | sotrastaurin 0.032 | alvocidib 0.031 | Tubastatin A 0.013 | [1] -0.03 | defactinib -0.021 | rucaparib -0.056 | [2] 0.029 | encorafenib 0.012 | [3] 0.034 | [4] -0.013 | filanesib -0.046 | zotarolimus -0.005 | idasanutlin -0.037 | alisertib -0.087 | [5] 0.041 | gefitinib 0.015 | [6] 0.06 | lapatinib -0.011 | pictilisib 0.069

Further records

CTH (UniProt P32929)
inactive: saracatinib 0.079 | sotrastaurin 0.021 | alvocidib -0.024 | Tubastatin A -0.02 | [1] -0.028 | defactinib -0.02 | rucaparib -0.033 | [2] -0.045 | encorafenib 0.034 | [3] -0.004 | [4] 0.055 | filanesib -0.025 | zotarolimus -0.014 | idasanutlin -0.082 | alisertib -0.046 | [5] -0.014 | gefitinib -0.04 | [6] 0.024 | lapatinib 0.018 | pictilisib 0.001

DARS (UniProt P14868)
inactive: saracatinib 0.034 | sotrastaurin 0.036 | alvocidib 0.026 | Tubastatin A -0.021 | [1] -0.026 | defactinib 0.047 | rucaparib 0.069 | [2] -0.019 | encorafenib 0.009 | [3] 0.018 | [4] -0.072 | filanesib 0.041 | zotarolimus -0.026 | idasanutlin 0.033 | alisertib -0.067 | [5] 0.006 | gefitinib -0.007 | [6] 0.001 | lapatinib -0.013 | pictilisib 0.002

CYB5B, A0A499FJ32
inactive: saracatinib -0.015 | sotrastaurin 0.027 | alvocidib 0.04 | Tubastatin A 0.015 | [1] 0.005 | defactinib -0.004 | rucaparib -0.258 | [2] 0.004 | encorafenib 0.046 | [3] -0.076 | [4] -0.1 | filanesib -0.051 | zotarolimus -0.084 | idasanutlin -0.051 | alisertib -0.047 | [5] 0.161 | gefitinib -0.058 | [6] 0.063 | lapatinib -0.056 | pictilisib 0.164

CYFIP2 (UniProt Q96F07)
inactive: saracatinib 0.004 | sotrastaurin 0.007 | alvocidib -0.042 | Tubastatin A -0.014 | [1] 0.027 | defactinib -0.08 | rucaparib -0.008 | [2] -0.024 | encorafenib -0.026 | [3] -0.02 | [4] 0.039 | filanesib -0.041 | zotarolimus -0.023 | idasanutlin -0.019 | alisertib 0.015 | [5] 0.02 | gefitinib 0.02 | [6] 0.014 | lapatinib 0.051 | pictilisib -0.005

CTNNA2 (UniProt P26232)
inactive: saracatinib 0.007 | sotrastaurin 0.001 | alvocidib -0.052 | Tubastatin A 0.142 | [1] -0.039 | defactinib -0.032 | rucaparib -0.053 | [2] -0.072 | encorafenib -0.02 | [3] -0.015 | [4] 0.125 | filanesib -0.023 | zotarolimus -0.011 | idasanutlin -0.095 | alisertib -0.019 | [5] -0.005 | gefitinib 0.014 | [6] -0.024 | lapatinib 0.013 | pictilisib 0.023

DCK (UniProt P27707)
inactive: saracatinib -0.05 | sotrastaurin 0.083 | alvocidib 0.004 | Tubastatin A -0.02 | [1] -0.08 | defactinib -0.048 | rucaparib 0.042 | [2] -0.002 | encorafenib -0.055 | [3] 0.029 | [4] 0.156 | filanesib 0.004 | zotarolimus 0 | idasanutlin -0.006 | alisertib -0.026 | [5] -0.023 | gefitinib -0.056 | [6] 0.047 | lapatinib 0.01 | pictilisib 0.142

DCAF1 (UniProt Q9Y4B6)
inactive: saracatinib 0.003 | sotrastaurin -0.029 | alvocidib -0.13 | Tubastatin A 0.014 | [1] 0.009 | defactinib -0.181 | rucaparib -0.086 | [2] -0.053 | encorafenib -0.035 | [3] 0.013 | [4] 0.048 | filanesib 0.05 | zotarolimus 0 | idasanutlin -0.066 | alisertib 0.046 | [5] -0.013 | gefitinib -0.014 | [6] 0.048 | lapatinib 0 | pictilisib 0.091

CTBP2 isoform 2 (UniProt P56545)
inactive: saracatinib -0.003 | sotrastaurin 0.075 | alvocidib 0.011 | Tubastatin A 0.003 | [1] -0.057 | defactinib -0.036 | rucaparib -0.082 | [2] -0.03 | encorafenib -0.038 | [3] 0.03 | [4] 0.063 | filanesib -0.022 | zotarolimus -0.001 | idasanutlin -0.014 | alisertib -0.002 | [5] -0.01 | gefitinib 0.039 | [6] 0.01 | lapatinib 0.005 | pictilisib 0.006

DAP (UniProt P51397)
inactive: saracatinib 0.039 | sotrastaurin 0.023 | alvocidib -0.002 | Tubastatin A -0.001 | [1] -0.024 | defactinib -0.014 | rucaparib 0.016 | [2] -0.013 | encorafenib 0.022 | [3] 0.023 | [4] 0.192 | filanesib 0.025 | zotarolimus -0.021 | idasanutlin 0.042 | alisertib -0.047 | [5] 0 | gefitinib 0.027 | [6] 0.093 | lapatinib -0.058 | pictilisib -0.008

CSTF1 (UniProt Q05048)
inactive: saracatinib -0.008 | sotrastaurin 0.041 | alvocidib 0.016 | Tubastatin A -0.031 | [1] 0.012 | defactinib 0.133 | rucaparib 0.028 | [2] -0.019 | encorafenib -0.009 | [3] 0.019 | [4] 0.118 | filanesib 0.003 | zotarolimus -0.005 | idasanutlin -0.058 | alisertib -0.027 | [5] 0.054 | gefitinib -0.027 | [6] -0.02 | lapatinib 0.026 | pictilisib 0.028
